# Laboratory results reported in PubChem BioAssay AID2685 (National Center for Advancing Translational Sciences (NCATS), 2010).
# The other results are listed elsewhere or left out. The main result of the screen is listed elsewhere. These columns were measured beside it and carry no call. Most of these compounds were active or inconclusive in the main read-out, so they are no random draw. The note in brackets gives the kind of curve behind each potency; many fits are weak.
# Assay: qHTS Assay for Lipid Storage Modulators in Drosophila S3 Cells;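 for cell number change: cells counted by Cell Tracker Red CMTPX staining in the red channel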
# Details: BODIPY lipid droplet fluorescence, 18-24 h; for cell number change: measured here: cell count max response, cells fed with added oleic acid
# In short: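 Drosophila S3 cells loaded with oleic acid (400 uM, as added) and compounds at several concentrations; lipid droplets imaged by 488-nm laser-scanning cytometry, 500–530 nm intensity and object ratio to cell channel. Percent activity normalized to 20 uM Triacsin C.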
# [1] = measured here: lipid fluorescence (Fed channel) AC50, cells fed with added oleic acid
# [2] = measured here: cell number channel AC50, cells fed with added oleic acid
SMILES,cell number change [%],AC50 [1],AC50 [2]
CN(Cc1cccc(F)c1)C(=O)CSc1nnc(C2CC2)n1C1CC1,2.09,"0.00517 µM [falling, full curve, poor fit]",–
COc1nc(-c2cnccn2)sc1C,6.65,–,–
COCC(C)NC(=O)c1ccc(CN2CCc3ccccc3C2)cc1 (stereo not given),118,"20.6 µM [rising, single point]","23.1 µM [rising, single point]"
CSc1ccc(CN2CCc3c([nH]c4ccccc34)C2)cc1,-4.53,–,–
CCOC(=O)c1ccc(NC(=O)CCN2C(=O)C3CC=CCC3C2=O)cc1 (stereo not given),0.0566,"0.206 µM [falling, full curve, poor fit]",–
Cc1ccc(NC(=S)N(N)CCO)cc1,-8.55,"0.651 µM [falling, full curve]",–
CCOc1ccccc1NC(=O)C(OC(=O)c1ccc(N(C)C)cc1)c1ccccc1 (stereo not given),-3.81,"29.1 µM [falling, single point]",–
COc1ccc(C(=O)c2c[nH]c(C(=O)NCC3CCCO3)c2)cc1 (stereo not given),-40.7,–,"11.6 µM [falling, partial curve]"
CCOC(=O)C(Cc1cc(C(C)=O)ccc1OCC)C(=O)OCC,-13.3,"6.51 µM [rising, single point]",–
NC(=O)C1(N2CCCCC2)CCN(C(=O)c2ccccc2)CC1,-11.2,"1.46 µM [rising, partial curve]",–
CCN(CC)CCSc1nnc2c3ccccc3n(CCc3ccccc3)c2n1,34,–,"1.64 µM [rising, full curve, poor fit]"
C/C(=N\Nc1nc(-c2cc(C)ccc2C)cs1)c1cc2ccccc2oc1=O,6.51,"0.291 µM [rising, partial curve]",–
COc1cc(C(=S)N2CCC(C(N)=O)CC2)ccc1O,58.7,–,"16.4 µM [rising, single point]"
COc1ccc(OCCCC(=O)N(CCC2=CCCCC2)c2c(N)n(Cc3ccccc3)c(=O)[nH]c2=O)cc1,-2.53,"20.6 µM [falling, single point]",–
Cc1ccc(Nc2nc(N)nc(CSc3nnc(-c4ccncc4)o3)n2)cc1,–,"6.51 µM [rising, partial curve]","5.8 µM [rising, single point]"
Cc1ccc(S(=O)(=O)Nc2ccc3c(c2)c2c(n3S(=O)(=O)c3ccc(C)cc3)CCCC2=O)cc1,9.13,"0.0058 µM [falling, full curve, poor fit]",–

# 2 compounds picked at random from the list so far:
SMILES,cell number change [%],AC50 [1],AC50 [2]
COCC(C)NC(=O)c1ccc(CN2CCc3ccccc3C2)cc1 (stereo not given),118,"20.6 µM [rising, single point]","23.1 µM [rising, single point]"
C/C(=N\Nc1nc(-c2cc(C)ccc2C)cs1)c1cc2ccccc2oc1=O,6.51,"0.291 µM [rising, partial curve]",–

# Next part

SMILES,cell number change [%],AC50 [1],AC50 [2]
CCOc1ccccc1OCCCOc1ccc([N+](=O)[O-])cc1Cl,44.5,"4.11 µM [rising, partial curve]","6.51 µM [rising, full curve, poor fit]"
CC(C)C(CCN1C(=O)CCC1=O)C1CCOC(C)(C)C1 (stereo not given),12.1,–,–
CCN(CC)S(=O)(=O)c1cccc(C(=O)OCC(=O)NC(C)c2ccccc2)c1 (stereo not given),-4.6,"0.651 µM [rising, single point]",–
NNC(=O)c1csc(-c2ccccc2)n1,0.703,–,"6.51 µM [falling, single point]"
CC1CCCCN1C(=O)CSc1nc2ccccc2n1CC(=O)N1CCc2ccccc21 (stereo not given),119,"1.3 µM [rising, full curve]","6.51 µM [rising, partial curve]"
CN(Cc1nc2ccccc2n1C)C(=O)c1cccs1,-34.6,"2.06 µM [falling, partial curve]",–
CCCC(=O)Nc1cccn(Cc2ccccc2Br)c1=O,–,–,"6.51 µM [rising, single point]"
CC(C)CC(NC(=O)C1CCC(C)CC1)C(=O)Nc1ccc2c(c1)OCCO2 (stereo not given),-12.5,"6.51 µM [rising, single point]",–
CN1C(=S)SC(N(O)C(=O)Nc2cccc3ccccc23)C1(C)C (stereo not given),-1.26,–,–
Cc1ccc(C(=O)NCC(=O)OC(C)C(=O)Nc2ccc(N(C)C)cc2)cc1C (stereo not given),-19.7,–,"6.51 µM [falling, single point]"
O=C1c2ccccc2C(=O)N1CCCCN(C(=O)c1ccc([N+](=O)[O-])cc1)c1ccc(Cl)cc1,-4.9,"0.461 µM [rising, single point]",–
C=CCn1c(=O)c2ccccc2n2c(SCC(=O)NC)nnc12,–,–,"6.51 µM [rising, single point]"
CCOc1ccc(-c2cc(C(=O)OC)[nH]n2)cc1,0.24,"0.082 µM [rising, full curve, poor fit]",–
N#Cc1c(N)n(-c2ccccc2N)c2nc3ccccc3nc12,0.679,"3.26 µM [falling, single point]",–
COC(=O)c1cc(S(=O)(=O)N2CCCCC2C)c[nH]1 (stereo not given),2.14,"0.82 µM [falling, partial curve, poor fit]",–
O=C(N/N=C/c1cccc(OC(=O)c2cccc(Br)c2)c1)c1cccnc1,-2.31,–,–
